Results from the supplement of paper PMC10849652.
The other results are listed elsewhere or left out.

Sequences of proteins named here, by UniProt entry; tags and fusion partners are left off. A change or cut given only in a name is not applied to a line headed by its entry.
UniProt Q13416: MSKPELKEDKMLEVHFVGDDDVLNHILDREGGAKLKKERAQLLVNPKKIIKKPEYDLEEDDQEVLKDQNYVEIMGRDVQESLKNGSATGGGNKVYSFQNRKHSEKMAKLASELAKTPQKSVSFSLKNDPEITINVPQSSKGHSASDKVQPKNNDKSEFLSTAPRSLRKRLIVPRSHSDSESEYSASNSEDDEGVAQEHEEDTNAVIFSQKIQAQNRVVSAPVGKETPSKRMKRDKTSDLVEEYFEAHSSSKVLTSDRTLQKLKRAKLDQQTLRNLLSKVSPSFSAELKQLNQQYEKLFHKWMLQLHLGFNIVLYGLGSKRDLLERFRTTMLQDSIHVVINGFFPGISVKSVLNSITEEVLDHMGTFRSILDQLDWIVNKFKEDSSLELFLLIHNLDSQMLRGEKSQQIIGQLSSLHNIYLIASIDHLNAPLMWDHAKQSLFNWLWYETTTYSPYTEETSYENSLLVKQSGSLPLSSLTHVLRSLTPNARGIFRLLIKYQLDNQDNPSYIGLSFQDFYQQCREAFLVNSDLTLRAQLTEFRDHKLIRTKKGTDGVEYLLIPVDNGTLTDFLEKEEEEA
UniProt P52948: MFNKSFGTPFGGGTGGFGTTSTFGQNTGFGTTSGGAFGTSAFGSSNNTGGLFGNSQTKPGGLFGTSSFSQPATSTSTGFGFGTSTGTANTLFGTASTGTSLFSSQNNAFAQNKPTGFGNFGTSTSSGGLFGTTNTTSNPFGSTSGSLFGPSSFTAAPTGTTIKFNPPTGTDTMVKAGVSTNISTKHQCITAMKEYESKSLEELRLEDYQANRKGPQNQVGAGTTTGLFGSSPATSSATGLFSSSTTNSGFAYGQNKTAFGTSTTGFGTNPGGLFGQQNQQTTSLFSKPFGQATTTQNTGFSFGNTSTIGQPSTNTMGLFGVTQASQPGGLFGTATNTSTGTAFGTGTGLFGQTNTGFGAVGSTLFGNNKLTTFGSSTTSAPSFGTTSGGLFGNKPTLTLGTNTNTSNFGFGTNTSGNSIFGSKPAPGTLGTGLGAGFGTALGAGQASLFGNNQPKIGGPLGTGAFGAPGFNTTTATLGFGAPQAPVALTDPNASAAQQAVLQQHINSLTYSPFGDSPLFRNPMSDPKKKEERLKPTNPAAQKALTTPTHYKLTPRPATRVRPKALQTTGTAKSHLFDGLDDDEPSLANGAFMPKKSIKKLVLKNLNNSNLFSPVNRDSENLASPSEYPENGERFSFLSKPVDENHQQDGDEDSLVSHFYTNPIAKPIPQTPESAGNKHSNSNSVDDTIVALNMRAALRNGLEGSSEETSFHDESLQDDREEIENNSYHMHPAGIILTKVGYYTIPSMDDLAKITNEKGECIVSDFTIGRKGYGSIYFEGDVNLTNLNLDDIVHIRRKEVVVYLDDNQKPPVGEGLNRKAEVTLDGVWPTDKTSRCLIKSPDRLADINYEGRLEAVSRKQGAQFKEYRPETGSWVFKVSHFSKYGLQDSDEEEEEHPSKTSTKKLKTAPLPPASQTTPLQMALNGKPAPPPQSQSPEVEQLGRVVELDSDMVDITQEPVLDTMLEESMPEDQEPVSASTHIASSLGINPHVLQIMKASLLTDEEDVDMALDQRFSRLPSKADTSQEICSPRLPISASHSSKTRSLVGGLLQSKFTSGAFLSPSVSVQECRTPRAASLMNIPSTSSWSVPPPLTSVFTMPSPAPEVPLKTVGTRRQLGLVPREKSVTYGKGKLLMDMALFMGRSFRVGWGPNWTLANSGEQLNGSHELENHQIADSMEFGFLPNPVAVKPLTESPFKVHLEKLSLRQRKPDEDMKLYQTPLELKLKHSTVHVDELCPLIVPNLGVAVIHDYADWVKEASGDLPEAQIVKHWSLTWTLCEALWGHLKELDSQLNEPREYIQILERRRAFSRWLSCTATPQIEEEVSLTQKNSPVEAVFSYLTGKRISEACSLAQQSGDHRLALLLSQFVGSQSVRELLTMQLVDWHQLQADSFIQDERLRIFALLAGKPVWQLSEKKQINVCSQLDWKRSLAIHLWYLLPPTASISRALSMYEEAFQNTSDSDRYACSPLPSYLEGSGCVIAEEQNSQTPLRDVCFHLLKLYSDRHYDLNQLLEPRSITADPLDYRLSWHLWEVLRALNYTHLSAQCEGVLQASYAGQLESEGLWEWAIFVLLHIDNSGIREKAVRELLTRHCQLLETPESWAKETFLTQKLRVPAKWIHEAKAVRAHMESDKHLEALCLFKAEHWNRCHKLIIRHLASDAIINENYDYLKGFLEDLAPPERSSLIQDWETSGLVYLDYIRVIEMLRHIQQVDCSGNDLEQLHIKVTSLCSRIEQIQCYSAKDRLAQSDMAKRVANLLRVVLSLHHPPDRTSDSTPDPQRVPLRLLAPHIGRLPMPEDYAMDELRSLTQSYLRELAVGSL
UniProt Q9UNF0: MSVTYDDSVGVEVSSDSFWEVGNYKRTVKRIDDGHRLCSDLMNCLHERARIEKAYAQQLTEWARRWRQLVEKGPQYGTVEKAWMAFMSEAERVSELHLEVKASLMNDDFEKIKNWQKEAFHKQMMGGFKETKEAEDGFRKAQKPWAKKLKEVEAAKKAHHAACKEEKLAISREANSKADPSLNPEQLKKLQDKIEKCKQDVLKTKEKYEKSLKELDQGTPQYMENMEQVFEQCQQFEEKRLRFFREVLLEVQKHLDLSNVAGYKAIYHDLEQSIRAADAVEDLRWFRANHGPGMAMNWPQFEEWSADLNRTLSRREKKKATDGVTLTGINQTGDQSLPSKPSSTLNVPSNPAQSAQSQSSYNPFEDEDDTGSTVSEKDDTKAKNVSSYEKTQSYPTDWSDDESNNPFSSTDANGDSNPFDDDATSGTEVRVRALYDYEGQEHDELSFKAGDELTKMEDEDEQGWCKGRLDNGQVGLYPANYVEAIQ
UniProt Q13177, whole entry, looked up: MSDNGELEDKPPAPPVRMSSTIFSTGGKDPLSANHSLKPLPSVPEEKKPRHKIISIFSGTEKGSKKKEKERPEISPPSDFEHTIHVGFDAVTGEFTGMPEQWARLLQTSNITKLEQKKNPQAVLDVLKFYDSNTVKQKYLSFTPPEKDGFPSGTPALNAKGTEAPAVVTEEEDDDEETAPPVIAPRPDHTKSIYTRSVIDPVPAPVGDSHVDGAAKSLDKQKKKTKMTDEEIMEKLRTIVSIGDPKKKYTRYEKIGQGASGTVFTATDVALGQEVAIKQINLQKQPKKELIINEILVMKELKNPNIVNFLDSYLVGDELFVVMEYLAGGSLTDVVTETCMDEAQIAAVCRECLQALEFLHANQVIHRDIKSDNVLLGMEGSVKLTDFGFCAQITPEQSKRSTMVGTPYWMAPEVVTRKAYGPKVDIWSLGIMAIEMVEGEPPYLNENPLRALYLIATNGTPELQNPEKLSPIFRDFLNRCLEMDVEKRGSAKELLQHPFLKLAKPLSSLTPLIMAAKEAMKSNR
UniProt Q6PK18: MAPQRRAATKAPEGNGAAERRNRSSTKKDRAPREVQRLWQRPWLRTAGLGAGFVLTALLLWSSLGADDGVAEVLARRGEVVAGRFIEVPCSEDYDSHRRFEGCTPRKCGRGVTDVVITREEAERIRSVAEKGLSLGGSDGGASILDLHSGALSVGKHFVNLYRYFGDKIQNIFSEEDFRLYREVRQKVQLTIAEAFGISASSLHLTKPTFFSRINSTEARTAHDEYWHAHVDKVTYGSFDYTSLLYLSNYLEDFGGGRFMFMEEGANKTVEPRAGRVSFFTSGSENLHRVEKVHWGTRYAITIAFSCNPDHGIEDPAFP
UniProt Q8N6M0: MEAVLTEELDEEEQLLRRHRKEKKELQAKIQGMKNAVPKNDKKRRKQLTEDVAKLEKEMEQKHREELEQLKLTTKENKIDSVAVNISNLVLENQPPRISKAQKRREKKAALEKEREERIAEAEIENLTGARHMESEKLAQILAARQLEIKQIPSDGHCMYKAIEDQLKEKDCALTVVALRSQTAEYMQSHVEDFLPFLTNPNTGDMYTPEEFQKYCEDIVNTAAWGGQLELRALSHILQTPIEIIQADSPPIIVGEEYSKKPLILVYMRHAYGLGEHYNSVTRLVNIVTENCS
UniProt Q9H1P3, whole entry, looked up: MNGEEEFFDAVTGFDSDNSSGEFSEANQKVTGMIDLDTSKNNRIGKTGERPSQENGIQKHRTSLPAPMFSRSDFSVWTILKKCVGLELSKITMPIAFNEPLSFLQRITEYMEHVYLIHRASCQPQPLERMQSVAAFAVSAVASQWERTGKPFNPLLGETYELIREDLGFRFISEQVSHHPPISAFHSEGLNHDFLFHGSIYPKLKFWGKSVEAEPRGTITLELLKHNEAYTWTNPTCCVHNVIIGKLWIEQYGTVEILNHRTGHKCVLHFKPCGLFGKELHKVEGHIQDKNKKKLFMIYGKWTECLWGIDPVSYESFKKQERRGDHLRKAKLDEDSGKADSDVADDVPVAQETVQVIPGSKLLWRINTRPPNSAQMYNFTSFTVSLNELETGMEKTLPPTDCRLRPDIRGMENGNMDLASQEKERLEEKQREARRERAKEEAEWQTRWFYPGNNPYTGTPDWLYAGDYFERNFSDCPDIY
UniProt O43252: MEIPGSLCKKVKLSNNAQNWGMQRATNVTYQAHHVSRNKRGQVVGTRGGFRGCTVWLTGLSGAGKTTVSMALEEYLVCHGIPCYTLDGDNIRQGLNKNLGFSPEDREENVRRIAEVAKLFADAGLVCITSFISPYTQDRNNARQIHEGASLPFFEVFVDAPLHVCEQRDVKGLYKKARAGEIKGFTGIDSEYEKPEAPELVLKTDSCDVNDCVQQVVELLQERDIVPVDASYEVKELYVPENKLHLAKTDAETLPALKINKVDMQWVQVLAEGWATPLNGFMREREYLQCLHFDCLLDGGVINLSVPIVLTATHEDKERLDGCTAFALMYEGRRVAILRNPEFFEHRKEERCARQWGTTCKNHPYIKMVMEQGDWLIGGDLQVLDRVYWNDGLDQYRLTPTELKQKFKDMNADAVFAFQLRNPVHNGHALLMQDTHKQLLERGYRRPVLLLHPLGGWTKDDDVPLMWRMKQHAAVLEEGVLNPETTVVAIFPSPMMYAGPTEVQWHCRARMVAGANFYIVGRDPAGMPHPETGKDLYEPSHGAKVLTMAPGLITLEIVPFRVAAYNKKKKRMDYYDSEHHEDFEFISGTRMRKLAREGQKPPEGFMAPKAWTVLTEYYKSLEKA
UniProt Q99497, whole entry, looked up: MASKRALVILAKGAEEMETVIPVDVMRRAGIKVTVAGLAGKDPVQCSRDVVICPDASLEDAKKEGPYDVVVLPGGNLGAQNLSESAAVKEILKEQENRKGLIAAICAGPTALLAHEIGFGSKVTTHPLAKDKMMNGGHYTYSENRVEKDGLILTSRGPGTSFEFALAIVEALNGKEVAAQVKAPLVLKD

Key:
Test in all cases: log2 fold change, soluble protein after heating vs DMSO (PISA); higher = thermal stabilisation; K562 lysate, 10 uM; active = over 0.2 and 3.5 SD of the protein, either way, in both replicates (recomputed)
[1] = compound: C1=CC=C(C=C1)[C@H](COC2=CC3=C(C=C2)NC(=O)N3)NC(=O)C4=CC=CN(C4=O)CC5=CC(=C(C=C5)F)F
In short: (§1)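 Following dounce homogenisation of K562 pellets in PBS pH 7.4 with 1 mM MgCl2, crude extract at 1 mg/mL protein was incubated for 30 min with 10 μM compound. Aliquots were then heated for 3 min over 48°C-58°C and pooled, NP-40 was added to 0.5% at 4°C, and soluble protein was recovered as the supernatant at 21,000xg for 90 min. Channel-sum-equalised TMTpro 16plex LC-MS/MS quantified this protein. Each value, from duplicates, is a log-two fold change in thermal stability relative to solvent controls.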

[2] = compound: CC1=C(SC2=C1C(=N[C@H](C3=NN=C(N32)C)CC(=O)N)C4=CC=C(C=C4)Cl)C
In short: as §1

[3] = compound: CC1=C2C(=CC=C1)N=C(N(C2=O)C3=CC=CC=C3C)CN4C=NC5=C(N=CN=C54)N
In short: as §1

[4] = compound: Cc1sc2c(c1C)C(c1ccc(Cl)cc1)=N[C@@H](CC(=O)OC(C)(C)C)c1nnc(C)n1-2
In short: as §1

[5] = compound: c1ccc([C@@H]2C[C@H]2NC2CCNCC2)cc1
In short: as §1

Measured: log2 fold change

ORC2 (UniProt Q13416)
inactive: [1] -0.052 | [2] -0.011 | [3] -0.012 | [4] 0.025 | [5] 0.044

NUP98 (UniProt P52948)
inactive: [1] -0.018 | [2] -0.03 | [3] 0.037 | [4] 0.052 | [5] -0.003

PACSIN2 (UniProt Q9UNF0)
inactive: [1] -0.024 | [2] 0.037 | [3] 0.013 | [4] 0.011 | [5] 0.05

PAK2 (UniProt Q13177)
inactive: [1] -0.003 | [2] 0.014 | [3] 0.004 | [4] -0.015 | [5] 0.04

OGFOD3 (UniProt Q6PK18)
inactive: [1] 0.088 | [2] 0.058 | [3] 0.054 | [4] -0.013 | [5] -0.024

OTUD6B (UniProt Q8N6M0)
inactive: [1] -0.057 | [2] -0.021 | [3] -0.027 | [4] 0.024 | [5] 0.083

OSBPL2 (UniProt Q9H1P3)
inactive: [1] -0.004 | [2] 0.108 | [3] -0.036 | [4] 0.006 | [5] -0.025

PAPSS1 (UniProt O43252)
inactive: [1] 0.032 | [2] 0.013 | [3] 0.029 | [4] 0.002 | [5] -0.038

PARK7 (UniProt Q99497)
inactive: [1] -0.035 | [2] 0.001 | [3] 0.006 | [4] -0.001 | [5] 0.021
